Here are results for two sequences from article PMC4222275, “Biochemical and functional characterization of SpdA, a 2′, 3′cyclic nucleotide phosphodiesterase from Sinorhizobium meliloti” (BMC Microbiology, 2013).

The subject of the data set is Clr-GST (Sinorhizobium meliloti 1021). As to the kind of experiment: EMSA. The conditions noted are these: 10 mM Tris pH 8.0, 1 mM EDTA, 1 mM DTT, 10 ug/ml BSA, 100 mM KCl, 50 ug/ml poly(dI-dC), 10% glycerol, 30 min room temperature, probe 1.75 nM, recombinant protein, protein details: N-terminal GST (pGEX-2T), label: 5'-32P. Background: Mobility shift assays separate free from complexed probe on a gel.

Construct, isoform or probe ends are uncertain for at least one entry. Negatives hold for the conditions tested.

Turning to “GGCATCGCCACCGCGGGAGCTGGCGGTG (double strand) [MN8 (mutated Clr-box 28-mer)]”, the binding result (200 uM 3',5'cAMP, Clr 1.75-35 uM) is “no binding”.

Regarding “GGCATCTGTTCCGCGGGAAACAGCGGTG (double strand) [WTN8 (WT Clr-box 28-mer, smc02178 promoter)]”, the binding result (200 uM 2',3'cAMP, 69 uM Clr) is recorded as “no binding”; the binding result (200 uM 3',5'cAMP + 200 uM 2',3'cAMP (1/1), 69 uM Clr, no detectable effect of 2',3'cAMP) was “binds”; the binding result (200 uM 3',5'cAMP, Clr 1.75-35 uM, retarded migration, no clear shifted band) is reported as “binds”; the binding result (no cAMP) is given as “no binding”.
